These are yes or no findings as the source states them, for the method shown. In cells and extracts the contact can be indirect. Some binding calls cover weakened binding; strength is not graded here.

Amino acid sequences for entries named in this document (tags omitted).
UniProt Q13464: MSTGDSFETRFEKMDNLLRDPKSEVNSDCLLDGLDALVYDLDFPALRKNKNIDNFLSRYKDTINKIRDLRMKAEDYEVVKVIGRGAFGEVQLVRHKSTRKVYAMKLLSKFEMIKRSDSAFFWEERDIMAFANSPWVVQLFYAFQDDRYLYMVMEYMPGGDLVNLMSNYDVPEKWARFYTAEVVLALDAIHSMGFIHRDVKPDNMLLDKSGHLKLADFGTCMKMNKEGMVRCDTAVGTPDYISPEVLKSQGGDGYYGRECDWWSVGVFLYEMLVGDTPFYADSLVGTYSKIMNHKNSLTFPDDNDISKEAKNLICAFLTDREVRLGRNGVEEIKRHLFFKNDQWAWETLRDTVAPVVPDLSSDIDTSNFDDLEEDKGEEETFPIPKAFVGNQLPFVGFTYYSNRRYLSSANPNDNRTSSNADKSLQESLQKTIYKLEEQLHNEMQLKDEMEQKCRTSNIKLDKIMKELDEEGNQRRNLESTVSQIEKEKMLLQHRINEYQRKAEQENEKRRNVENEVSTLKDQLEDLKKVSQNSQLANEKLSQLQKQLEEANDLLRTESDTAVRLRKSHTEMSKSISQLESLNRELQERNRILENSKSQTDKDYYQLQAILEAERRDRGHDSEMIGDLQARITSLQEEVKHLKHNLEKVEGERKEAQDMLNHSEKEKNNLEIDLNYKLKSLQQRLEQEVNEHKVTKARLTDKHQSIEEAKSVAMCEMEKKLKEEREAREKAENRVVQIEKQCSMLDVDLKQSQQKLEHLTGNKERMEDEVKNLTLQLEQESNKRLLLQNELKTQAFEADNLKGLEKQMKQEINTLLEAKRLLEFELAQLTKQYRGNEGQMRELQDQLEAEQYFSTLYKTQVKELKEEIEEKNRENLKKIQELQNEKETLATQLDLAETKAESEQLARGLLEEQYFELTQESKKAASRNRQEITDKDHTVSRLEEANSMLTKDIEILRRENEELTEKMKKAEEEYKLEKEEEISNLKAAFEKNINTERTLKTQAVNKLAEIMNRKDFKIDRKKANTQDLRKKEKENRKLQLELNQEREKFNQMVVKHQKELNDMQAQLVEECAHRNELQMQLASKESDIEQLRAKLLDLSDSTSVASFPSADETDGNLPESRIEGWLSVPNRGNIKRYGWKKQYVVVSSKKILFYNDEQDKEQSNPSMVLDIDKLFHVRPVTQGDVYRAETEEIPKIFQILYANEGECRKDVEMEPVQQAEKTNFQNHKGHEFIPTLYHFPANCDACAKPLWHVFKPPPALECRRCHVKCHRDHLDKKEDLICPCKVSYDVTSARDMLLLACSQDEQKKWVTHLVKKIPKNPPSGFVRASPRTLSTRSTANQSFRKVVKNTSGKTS
UniProt Q00987: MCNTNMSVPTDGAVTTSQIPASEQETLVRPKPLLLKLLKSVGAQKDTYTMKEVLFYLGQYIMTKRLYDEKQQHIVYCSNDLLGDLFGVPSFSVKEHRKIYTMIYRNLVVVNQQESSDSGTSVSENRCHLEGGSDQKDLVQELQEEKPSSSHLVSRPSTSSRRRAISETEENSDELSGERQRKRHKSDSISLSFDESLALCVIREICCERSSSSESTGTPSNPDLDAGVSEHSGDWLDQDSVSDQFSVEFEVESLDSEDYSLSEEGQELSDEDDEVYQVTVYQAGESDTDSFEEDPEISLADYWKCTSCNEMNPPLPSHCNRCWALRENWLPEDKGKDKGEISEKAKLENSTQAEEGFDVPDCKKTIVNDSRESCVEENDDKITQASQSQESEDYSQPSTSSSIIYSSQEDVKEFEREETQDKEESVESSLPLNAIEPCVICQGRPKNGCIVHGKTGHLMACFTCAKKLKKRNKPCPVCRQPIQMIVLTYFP

This test concerns the target ROCK1 (Rho-associated protein kinase 1) (human (endogenous in Swan 71)) (UniProt Q13464). Description: co-IP; Swan 71 cells, with or without PS-NPs exposure (24 h treatment); lysis in RIPA buffer with PMSF; lysate pre-cleared with Protein A and Protein G agarose beads; primary or isotype control antibodies overnight at 4 °C; Western blot detection.

For “MDM2 (Mouse double minute 2 homolog) (from UniProt Q00987 1-491)”, the binding result was “binds”.

Source of the values: publication PMC12680179.
